Data taken from patent US20250163167A1.
No constants are given. Whether binding was seen depends on the method and setting. Some binding calls cover weakened binding; strength is not graded here.

Amino acid sequences for entries named in this document (tags omitted). A change or cut given only in a name is not applied to a line headed by its entry.
UniProt Q08334: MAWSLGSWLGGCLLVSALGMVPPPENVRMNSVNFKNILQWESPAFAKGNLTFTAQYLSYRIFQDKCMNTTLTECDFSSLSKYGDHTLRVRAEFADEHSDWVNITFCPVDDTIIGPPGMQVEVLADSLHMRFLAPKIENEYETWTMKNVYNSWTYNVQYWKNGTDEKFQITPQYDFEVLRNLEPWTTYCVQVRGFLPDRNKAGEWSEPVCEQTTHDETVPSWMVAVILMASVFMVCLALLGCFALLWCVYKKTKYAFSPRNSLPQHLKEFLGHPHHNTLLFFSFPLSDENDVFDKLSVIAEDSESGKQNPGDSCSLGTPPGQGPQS

Target: hIL10Rb ECD antigen (human) (UniProt Q08334)
Assay: periplasmic extract ELISA (PE-ELISA) of phage clones

B1: hIL10Rb VHH-4 (VHH)
VHH: QVQLQESGGGSIQAGGSLRLSCAASRYLYSIDYMAWFRQSPGKEREPVAVIYTASGATFYPDSVKGRFTISQDNAKMTVYLQMNSLKSEDTAMYYCAAVRKTDSYLFDAQSFTYWGQGTQVTVSS
- binding: binds

B2: hIL10Rb VHH-6 (VHH)
VHH: QVQLQESGGGSIQAGGSLTLSCAASRDLYSTNYVAWFRQSPGKEREAVAVIYTASGATLYSDSVKGRFTISQDNAKMTVYLQMNSLKSEDTAMYYCAAVRKTGHYLFDAQSFTYWGQGTQVTVSS
- binding: binds
